This is one part of the list.
Compound: C1=CC=C(C=C1)[C@H](COC2=CC3=C(C=C2)NC(=O)N3)NC(=O)C4=CC=CN(C4=O)CC5=CC(=C(C=C5)F)F
Test: log2 fold change, soluble protein after heating vs DMSO (PISA); higher = thermal stabilisation; K562 cells, 10 uM, 30 min; active = over 0.2 and 3.5 SD of the protein, either way, in both replicates (recomputed)
Summary of the method: (§1)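 Soluble protein was quantified by TMTpro 16plex LC-MS/MS after channel sums were equalised. It was obtained as the supernatant after 21,000xg for 90 min from pooled aliquots of K562 cells (2×10^6 cells/mL, 10 μM compound, 30 min) heated for 3 min across 48°C-58°C and extracted in PBS with 0.5% NP-40 at 4°C. Thermal stability values are relative to control samples and come from duplicates. They are given as log2 fold changes.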

Chains of the proteins cited; added tags and fusions are not shown. Lines headed by an entry give the natural chain unless they say otherwise; changes in a name come on top.
UniProt Q9NPB0: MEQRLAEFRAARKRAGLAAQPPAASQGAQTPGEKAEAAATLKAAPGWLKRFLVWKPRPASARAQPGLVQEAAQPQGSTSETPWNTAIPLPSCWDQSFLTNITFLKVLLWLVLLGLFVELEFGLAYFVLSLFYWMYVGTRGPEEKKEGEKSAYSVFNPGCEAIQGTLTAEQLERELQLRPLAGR
UniProt O43818: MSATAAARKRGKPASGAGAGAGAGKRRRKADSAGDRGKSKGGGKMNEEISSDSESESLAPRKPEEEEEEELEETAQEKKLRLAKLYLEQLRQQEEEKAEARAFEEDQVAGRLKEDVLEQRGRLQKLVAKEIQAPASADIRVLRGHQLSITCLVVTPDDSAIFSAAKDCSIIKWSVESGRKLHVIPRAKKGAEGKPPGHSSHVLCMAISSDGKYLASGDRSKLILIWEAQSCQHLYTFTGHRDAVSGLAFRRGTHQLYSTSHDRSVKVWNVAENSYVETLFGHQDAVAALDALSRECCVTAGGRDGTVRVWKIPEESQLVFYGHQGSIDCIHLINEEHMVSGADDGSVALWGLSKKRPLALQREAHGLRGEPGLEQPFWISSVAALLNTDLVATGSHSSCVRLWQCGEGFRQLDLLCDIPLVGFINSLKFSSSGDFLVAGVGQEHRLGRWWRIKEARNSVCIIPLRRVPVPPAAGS
UniProt Q13296: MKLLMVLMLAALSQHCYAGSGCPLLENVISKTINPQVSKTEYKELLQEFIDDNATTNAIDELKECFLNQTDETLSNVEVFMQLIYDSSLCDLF
UniProt Q9Y3A5: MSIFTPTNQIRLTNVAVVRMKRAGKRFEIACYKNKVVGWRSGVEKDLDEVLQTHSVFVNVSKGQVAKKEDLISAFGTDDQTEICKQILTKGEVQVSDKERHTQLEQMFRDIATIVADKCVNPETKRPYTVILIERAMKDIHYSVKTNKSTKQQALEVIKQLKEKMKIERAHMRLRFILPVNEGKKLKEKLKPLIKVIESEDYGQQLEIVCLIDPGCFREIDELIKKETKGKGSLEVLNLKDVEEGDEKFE
UniProt P60903, whole entry, looked up: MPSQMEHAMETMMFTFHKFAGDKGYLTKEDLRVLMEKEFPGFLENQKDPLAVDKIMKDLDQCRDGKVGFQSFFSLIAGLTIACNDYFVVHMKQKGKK
UniProt Q5VUM1: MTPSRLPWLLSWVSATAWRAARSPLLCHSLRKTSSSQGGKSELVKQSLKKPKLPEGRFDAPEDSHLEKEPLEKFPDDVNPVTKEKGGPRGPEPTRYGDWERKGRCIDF
UniProt Q9HCY8: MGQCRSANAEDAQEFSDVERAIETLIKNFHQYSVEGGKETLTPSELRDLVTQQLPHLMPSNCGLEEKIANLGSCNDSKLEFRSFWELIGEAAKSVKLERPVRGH
UniProt Q99470: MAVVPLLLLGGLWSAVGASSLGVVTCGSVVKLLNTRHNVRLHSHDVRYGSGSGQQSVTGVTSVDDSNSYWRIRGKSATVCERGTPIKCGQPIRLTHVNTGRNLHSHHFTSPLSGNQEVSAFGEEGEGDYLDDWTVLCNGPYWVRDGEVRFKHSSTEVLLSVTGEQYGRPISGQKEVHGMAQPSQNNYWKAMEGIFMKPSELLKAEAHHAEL
UniProt Q96FQ6: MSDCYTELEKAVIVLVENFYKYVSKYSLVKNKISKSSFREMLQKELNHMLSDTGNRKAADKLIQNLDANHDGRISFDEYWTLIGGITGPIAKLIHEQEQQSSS
UniProt O14828: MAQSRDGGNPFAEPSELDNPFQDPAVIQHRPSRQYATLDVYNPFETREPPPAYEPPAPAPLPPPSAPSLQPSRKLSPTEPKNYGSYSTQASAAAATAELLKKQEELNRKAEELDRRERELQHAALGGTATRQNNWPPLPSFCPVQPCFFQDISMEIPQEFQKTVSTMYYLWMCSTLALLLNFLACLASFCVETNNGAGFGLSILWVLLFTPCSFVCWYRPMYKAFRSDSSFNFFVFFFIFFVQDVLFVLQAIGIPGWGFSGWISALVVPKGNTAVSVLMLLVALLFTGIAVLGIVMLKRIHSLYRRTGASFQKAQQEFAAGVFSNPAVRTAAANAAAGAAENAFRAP
UniProt P53992: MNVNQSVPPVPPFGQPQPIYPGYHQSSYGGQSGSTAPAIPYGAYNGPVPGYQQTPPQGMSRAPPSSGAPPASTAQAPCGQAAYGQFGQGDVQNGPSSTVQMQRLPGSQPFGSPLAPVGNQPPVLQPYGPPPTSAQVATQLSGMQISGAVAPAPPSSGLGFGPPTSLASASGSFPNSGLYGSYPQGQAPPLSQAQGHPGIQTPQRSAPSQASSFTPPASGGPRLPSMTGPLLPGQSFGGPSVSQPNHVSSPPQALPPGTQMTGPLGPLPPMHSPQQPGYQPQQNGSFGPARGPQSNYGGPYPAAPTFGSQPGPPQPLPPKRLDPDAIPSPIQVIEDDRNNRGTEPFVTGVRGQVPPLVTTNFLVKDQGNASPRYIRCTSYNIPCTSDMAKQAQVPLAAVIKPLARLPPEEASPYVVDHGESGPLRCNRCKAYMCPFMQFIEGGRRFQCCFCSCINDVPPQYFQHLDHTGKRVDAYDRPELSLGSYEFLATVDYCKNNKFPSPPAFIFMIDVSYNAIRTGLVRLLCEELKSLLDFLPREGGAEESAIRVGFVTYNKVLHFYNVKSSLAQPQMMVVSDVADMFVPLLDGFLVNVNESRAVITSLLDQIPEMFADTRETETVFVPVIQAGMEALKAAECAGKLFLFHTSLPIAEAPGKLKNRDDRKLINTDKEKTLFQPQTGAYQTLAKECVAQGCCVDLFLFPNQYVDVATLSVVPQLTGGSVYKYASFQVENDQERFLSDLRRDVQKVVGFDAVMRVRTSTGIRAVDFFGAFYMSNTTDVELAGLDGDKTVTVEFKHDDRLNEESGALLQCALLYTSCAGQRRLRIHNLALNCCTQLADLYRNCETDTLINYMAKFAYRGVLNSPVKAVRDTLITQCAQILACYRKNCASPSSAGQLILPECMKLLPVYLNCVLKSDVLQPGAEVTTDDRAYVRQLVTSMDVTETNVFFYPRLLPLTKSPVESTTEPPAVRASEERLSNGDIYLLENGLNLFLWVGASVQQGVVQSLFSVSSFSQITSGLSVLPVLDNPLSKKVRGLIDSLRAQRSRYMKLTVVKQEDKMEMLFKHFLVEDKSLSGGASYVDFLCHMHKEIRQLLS
UniProt Q96IW7: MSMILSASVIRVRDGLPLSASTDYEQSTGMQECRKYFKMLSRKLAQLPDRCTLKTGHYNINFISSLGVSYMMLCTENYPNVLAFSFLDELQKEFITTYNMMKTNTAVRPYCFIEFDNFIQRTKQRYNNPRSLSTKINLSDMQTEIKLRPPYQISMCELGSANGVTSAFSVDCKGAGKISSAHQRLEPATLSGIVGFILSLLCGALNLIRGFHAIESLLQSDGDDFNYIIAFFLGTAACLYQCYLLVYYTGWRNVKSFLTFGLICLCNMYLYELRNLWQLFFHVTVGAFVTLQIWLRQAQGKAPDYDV
UniProt Q7L3V2: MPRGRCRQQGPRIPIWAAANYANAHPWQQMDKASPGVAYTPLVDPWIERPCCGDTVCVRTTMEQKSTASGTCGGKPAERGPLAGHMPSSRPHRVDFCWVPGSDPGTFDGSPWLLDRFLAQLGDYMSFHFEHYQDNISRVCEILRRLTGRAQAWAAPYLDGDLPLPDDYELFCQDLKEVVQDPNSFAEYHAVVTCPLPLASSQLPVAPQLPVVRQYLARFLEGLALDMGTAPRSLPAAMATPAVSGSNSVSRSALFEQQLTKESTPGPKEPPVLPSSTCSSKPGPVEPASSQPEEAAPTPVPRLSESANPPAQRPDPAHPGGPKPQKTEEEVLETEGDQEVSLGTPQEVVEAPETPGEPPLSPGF
UniProt Q14160: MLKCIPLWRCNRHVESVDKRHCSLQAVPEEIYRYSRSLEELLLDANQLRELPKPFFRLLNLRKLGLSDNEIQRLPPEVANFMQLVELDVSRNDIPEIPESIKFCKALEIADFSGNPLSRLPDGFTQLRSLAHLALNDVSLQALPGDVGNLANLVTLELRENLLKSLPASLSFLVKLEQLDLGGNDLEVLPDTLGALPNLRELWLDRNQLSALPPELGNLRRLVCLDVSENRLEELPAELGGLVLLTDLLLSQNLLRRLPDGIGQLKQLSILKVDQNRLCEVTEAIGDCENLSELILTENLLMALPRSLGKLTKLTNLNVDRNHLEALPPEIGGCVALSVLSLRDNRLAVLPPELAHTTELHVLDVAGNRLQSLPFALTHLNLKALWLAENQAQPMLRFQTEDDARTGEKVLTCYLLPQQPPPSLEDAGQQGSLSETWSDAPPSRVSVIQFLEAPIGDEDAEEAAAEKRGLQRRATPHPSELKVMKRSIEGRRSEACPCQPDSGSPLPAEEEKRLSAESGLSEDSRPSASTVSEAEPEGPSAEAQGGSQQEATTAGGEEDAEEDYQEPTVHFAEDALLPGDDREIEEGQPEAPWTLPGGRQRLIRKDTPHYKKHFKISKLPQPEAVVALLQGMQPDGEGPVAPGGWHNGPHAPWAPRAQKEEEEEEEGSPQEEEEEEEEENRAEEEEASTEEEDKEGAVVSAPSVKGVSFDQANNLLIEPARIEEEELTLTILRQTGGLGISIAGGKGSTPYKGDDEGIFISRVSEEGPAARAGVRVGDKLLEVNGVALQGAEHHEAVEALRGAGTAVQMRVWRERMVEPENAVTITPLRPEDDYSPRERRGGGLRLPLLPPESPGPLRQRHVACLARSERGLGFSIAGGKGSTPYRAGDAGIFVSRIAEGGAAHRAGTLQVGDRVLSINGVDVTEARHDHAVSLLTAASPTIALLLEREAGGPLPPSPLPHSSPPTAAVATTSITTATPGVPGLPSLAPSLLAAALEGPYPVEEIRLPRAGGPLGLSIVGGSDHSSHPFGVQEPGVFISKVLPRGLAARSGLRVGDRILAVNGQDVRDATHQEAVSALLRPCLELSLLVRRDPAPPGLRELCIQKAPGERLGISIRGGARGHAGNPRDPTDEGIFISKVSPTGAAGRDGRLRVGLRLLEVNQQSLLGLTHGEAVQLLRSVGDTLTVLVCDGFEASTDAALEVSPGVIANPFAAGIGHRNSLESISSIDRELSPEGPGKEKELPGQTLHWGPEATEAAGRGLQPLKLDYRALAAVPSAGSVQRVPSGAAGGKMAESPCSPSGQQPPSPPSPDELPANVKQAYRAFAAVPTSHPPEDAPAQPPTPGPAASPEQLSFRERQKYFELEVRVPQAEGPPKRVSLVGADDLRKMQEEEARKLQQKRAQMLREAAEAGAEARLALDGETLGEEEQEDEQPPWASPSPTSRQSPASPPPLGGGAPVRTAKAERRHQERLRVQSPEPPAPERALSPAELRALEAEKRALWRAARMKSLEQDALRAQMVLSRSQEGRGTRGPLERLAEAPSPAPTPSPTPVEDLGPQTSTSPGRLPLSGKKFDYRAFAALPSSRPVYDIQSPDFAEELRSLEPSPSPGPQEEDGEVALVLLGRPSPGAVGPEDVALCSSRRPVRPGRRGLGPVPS
UniProt Q9NQC3: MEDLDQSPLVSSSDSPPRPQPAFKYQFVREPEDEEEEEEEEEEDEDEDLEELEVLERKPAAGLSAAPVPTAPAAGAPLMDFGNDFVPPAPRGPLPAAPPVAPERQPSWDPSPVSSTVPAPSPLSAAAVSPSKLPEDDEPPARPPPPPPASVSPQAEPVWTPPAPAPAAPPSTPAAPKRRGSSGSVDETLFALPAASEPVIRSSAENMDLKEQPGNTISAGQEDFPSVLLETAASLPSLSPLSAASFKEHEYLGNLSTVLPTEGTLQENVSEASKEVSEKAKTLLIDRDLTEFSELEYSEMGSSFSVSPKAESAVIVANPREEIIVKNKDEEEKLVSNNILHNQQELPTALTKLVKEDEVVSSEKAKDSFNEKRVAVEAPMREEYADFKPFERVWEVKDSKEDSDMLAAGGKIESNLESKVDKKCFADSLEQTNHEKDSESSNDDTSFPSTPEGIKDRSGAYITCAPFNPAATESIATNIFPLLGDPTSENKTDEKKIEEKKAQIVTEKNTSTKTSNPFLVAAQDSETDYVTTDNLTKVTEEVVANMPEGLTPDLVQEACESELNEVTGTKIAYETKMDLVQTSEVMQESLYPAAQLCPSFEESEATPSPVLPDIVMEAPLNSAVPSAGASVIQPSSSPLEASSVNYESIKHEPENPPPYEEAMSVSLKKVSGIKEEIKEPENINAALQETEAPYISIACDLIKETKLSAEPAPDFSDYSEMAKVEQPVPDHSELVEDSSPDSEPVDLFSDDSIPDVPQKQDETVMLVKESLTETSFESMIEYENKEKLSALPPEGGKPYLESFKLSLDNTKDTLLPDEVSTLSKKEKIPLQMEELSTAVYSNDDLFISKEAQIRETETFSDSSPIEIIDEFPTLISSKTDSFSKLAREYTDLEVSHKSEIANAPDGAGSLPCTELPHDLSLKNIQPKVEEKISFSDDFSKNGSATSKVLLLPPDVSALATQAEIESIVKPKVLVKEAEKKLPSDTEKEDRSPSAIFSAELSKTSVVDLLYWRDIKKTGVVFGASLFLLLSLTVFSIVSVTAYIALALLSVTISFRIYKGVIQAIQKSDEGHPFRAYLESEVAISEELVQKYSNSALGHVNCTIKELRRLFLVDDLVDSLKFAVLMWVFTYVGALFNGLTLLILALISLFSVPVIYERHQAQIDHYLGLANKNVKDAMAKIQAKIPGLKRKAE

Target	log2 fold change
SAYSD1 (UniProt Q9NPB0)	inactive: -0.043
S100A6 (UniProt P06703)	inactive: -0.019
RRP9 (UniProt O43818)	inactive: 0.036
SDCBP isoform 2 (UniProt O00560)	inactive: -0.08
RUNX1 isoform 8 (UniProt Q01196)	inactive: -0.042
SDHB, A0A087WXX8	inactive: -0.05
SDHB, A0A087WWT1	inactive: 0.018
SCGB2A2 (UniProt Q13296)	inactive: -0.23
SBDS (UniProt Q9Y3A5)	inactive: -0.067
RSL24D1 (UniProt Q9UHA3)	inactive: 0.117
S100A10 (UniProt P60903)	inactive: 0.651
SDHAF4 (UniProt Q5VUM1)	inactive: 0.053
S100A14 (UniProt Q9HCY8)	inactive: -0.042
SDF2 (UniProt Q99470)	inactive: 0.272
S100A16 (UniProt Q96FQ6)	inactive: 0.193
SCAMP3 isoform 2 (UniProt O14828)	inactive: 0.09
SEC24C (UniProt P53992)	inactive: -0.069
SEC22A (UniProt Q96IW7)	inactive: -0.03
SCNM1 (UniProt Q9BWG6)	inactive: 0.055
SAMD4B (UniProt Q5PRF9)	inactive: 0.107
SDAD1 (UniProt Q9NVU7)	inactive: -0.052
SAE1 (UniProt M0R286)	inactive: -0.08

Compound: CC1=C(SC2=C1C(=N[C@H](C3=NN=C(N32)C)CC(=O)N)C4=CC=C(C=C4)Cl)C
Test: as above
Summary of the method: as §1

Target	log2 fold change
SAYSD1 (UniProt Q9NPB0)	inactive: 0.116
S100A6 (UniProt P06703)	inactive: 0.032
SAP130 isoform 3 (UniProt Q9H0E3)	inactive: -0.159
SEC14L1 isoform 2 (UniProt Q92503)	inactive: 0.101
RRP9 (UniProt O43818)	inactive: -0.136
SAP30 (UniProt O75446)	inactive: -0.006
SDHB, A0A087WXX8	inactive: -0.003
SDHB, A0A087WWT1	inactive: -0.025
SBDS (UniProt Q9Y3A5)	inactive: 0.067
SCAI isoform 2 (UniProt Q8N9R8)	inactive: 0.013
RUFY3 isoform 3 (UniProt Q7L099)	inactive: -0.004
RTL10 (UniProt Q7L3V2)	inactive: 0.017
S100A10 (UniProt P60903)	inactive: 0.061
SDHAF4 (UniProt Q5VUM1)	inactive: 0.16
SCRIB isoform 3 (UniProt Q14160)	inactive: -0.061
SEC24C (UniProt P53992)	inactive: 0.044
SEC22A (UniProt Q96IW7)	inactive: 0.071
SDC3 (UniProt O75056)	inactive: -0.012
SAMD4B (UniProt Q5PRF9)	inactive: -0.027
SDAD1 (UniProt Q9NVU7)	inactive: -0.045
SAE1 (UniProt M0R286)	inactive: 0.313
RTN4 isoform 5 (UniProt Q9NQC3)	inactive: -0.083

From the supplement of paper PMC10849652
